No constants are given. Whether binding was seen depends on the method and setting. Binding seen in cells or lysates may run through a third protein. For some of these results: Binding calls can cover weak binding; strength is not graded here. Sequences can lack the tags named with a protein.
B1: MYC-tagged RPN1 (protein, UniProt P04843 24-607)
chain: ASSEAPPLINEDVKRTVDLSSHLAKVTAEVVLAHLGGGSTSRATSFLLALEPELEARLAHLGVQVKGEDEEENNLEVRETKIKGKSGRFFTVKLPVALDPGAKISVIVETVYTHVLHPYPTQITQSEKQFVVFEGNHYFYSPYPTKTQTMRVKLASRNVESYTKLGNPTRSEDLLDYGPFRDVPAYSQDTFKVHYENNSPFLTITSMTRVIEVSHWGNIAVEENVDLKHTGAVLKGPFSRYDYQRQPDSGISSIRSFKTILPAAAQDVYYRDEIGNVSTSHLLILDDSVEMEIRPRFPLFGGWKTHYIVGYNLPSYEYLYNLGDQYALKMRFVDHVFDEQVIDSLTVKIILPEGAKNIEIDSPYEISRAPDELHYTYLDTFGRPVIVAYKKNLVEQHIQDIVVHYTFNKVLMLQEPLLVVAAFYILFFTVIIYVRLDFSITKDPAAEARMKVACITEQVLTLVNKRIGLYRHFDETVNRYKQSRDISTLNSGKKSLETEHKALTSEIALLQSRLKTEGSDLCDRVSEMQKLDAQVKELVLKSAVEAERLVAGKLKKDTYIENEKLISGKRQELVTKIDHILDAL
B2: MYC-tagged DDOST (protein, UniProt P39656 43-456)
chain: SGPRTLVLLDNLNVRETHSLFFRSLKDRGFELTFKTADDPSLSLIKYGEFLYDNLIIFSPSVEDFGGNINVETISAFIDGGGSVLVAASSDIGDPLRELGSECGIEFDEEKTAVIDHHNYDISDLGQHTLIVADTENLLKAPTIVGKSSLNPILFRGVGMVADPDNPLVLDILTGSSTSYSFFPDKPITQYPHAVGKNTLLIAGLQARNNARVIFSGSLDFFSDSFFNSAVQKAAPGSQRYSQTGNYELAVALSRWVFKEEGVLRVGPVSHHRVGETAPPNAYTVTDLVEYSIVIQQLSNGKWVPFDGDDIQLEFVRIDPFVRTFLKKKGGKYSVQFKLPDVYGVFQFKVDYNRLGYTHLYSSTQVSVRPLQHTQYERFIPSAYPYYASAFSMMLGLFIFSIVFLHMKEKEKSD

Columns and labels:
Assay in all cases: co-IP; 293T cells co-transfected for 48 h with FLAG-GBP5 (WT or mutant) and a MYC-tagged OST subunit; lysates (Pierce IP Lysis Buffer) immunoprecipitated overnight at 4°C with anti-FLAG on Dynabeads Protein G; washes include 500 mM NaCl; anti-MYC blot
[1] = target: T1, FLAG-tagged GBP5 (guanylate-binding protein 5) (UniProt Q96PP8)
T1 sequence: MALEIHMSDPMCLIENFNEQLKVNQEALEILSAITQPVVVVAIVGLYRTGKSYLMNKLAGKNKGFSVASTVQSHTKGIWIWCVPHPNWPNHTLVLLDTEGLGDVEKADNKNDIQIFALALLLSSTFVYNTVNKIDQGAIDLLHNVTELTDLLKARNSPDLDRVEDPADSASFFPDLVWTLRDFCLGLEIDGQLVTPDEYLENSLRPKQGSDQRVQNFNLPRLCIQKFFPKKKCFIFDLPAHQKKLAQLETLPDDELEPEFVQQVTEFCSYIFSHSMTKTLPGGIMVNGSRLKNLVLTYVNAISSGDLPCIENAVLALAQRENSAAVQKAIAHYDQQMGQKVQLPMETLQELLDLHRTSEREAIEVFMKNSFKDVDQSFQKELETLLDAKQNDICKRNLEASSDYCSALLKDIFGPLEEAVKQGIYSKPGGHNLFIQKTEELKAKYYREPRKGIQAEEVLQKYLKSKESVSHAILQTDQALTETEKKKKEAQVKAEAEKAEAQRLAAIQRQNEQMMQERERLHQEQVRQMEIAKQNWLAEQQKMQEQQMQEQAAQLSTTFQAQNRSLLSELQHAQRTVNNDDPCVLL

[2] = target: FLAG-GBP5 mutant M1 (deletion of the large GTPase (LG) domain)
[3] = target: FLAG-GBP5 mutant M4 (deletion of the GTPase effector domain (GED))

Molecule | binding [1] | binding [2] | binding [3]
MYC-tagged DDOST deleted for its C terminal cytoplasmic tail (domain or fragment) | no binding | – | –
MYC-tagged RPN2 deleted for its C terminal cytoplasmic tail (domain or fragment) | no binding | – | –
MYC-tagged RPN1 deleted for its C terminal cytoplasmic tail (domain or fragment) | no binding | – | –
B1 | – | binds | binds
B2 | – | binds | binds

Source: article doi:10.1101/2024.05.01.591800
